{"source": "PubChem BioAssay AID743121 (NCATS, 2013)", "test": "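Knock-downs that sensitise breast cancer cells to camptothecin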 (primary screen)", "cells": "MDA-MB-231 cells, a human breast cancer line", "knock-down reagent": "single siRNA against human genes, 20 nM siRNA (0.8 pmol per well)", "timing": "120 h (drug added 48 h after transfection, read 72 h later)", "conditions": "camptothecin 20 nM (about EC30) for 72 h; vehicle 0.1% DMSO in parallel plates", "read-out": "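Cell viability by ATP luminescence (CellTiter-Glo) as % of non-targeting siRNA wells, and the log2 ratio of viability without drug over viability with camptothecin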", "reading the numbers": "log2 vehicle/camptothecin viability: higher = stronger sensitisation to camptothecin", "call rule": "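Active genes have an RSA gene-level p-value below 0.001, computed from the ratios of their separate siRNAs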", "note": "Shown is an unselected part of about 26,000 reagents tested. 167 of them (0.63%) count as active. 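Calls are per gene from RSA p-values that are not deposited; an individual active-marked siRNA can sensitise only weakly.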 The numbers tell different reagents against one gene apart. Not all columns of the deposit are shown."}
{"target gene": "TRAM1", "reagent no.": 1, "log2 vehicle/camptothecin viability": -0.343, "Call": "inactive"}
{"target gene": "TRAM1", "reagent no.": 2, "log2 vehicle/camptothecin viability": 0.189, "Call": "inactive"}
{"target gene": "TRAM1", "reagent no.": 3, "log2 vehicle/camptothecin viability": -0.0729, "Call": "inactive"}
{"target gene": "TRAM1", "reagent no.": 4, "log2 vehicle/camptothecin viability": -0.0822, "Call": "inactive"}
{"target gene": "SSTR5", "reagent no.": 1, "log2 vehicle/camptothecin viability": -0.121, "Call": "inactive"}
{"target gene": "SSTR5", "reagent no.": 2, "log2 vehicle/camptothecin viability": 0.237, "Call": "inactive"}
{"target gene": "SSTR5", "reagent no.": 3, "log2 vehicle/camptothecin viability": -0.194, "Call": "inactive"}
{"target gene": "SSTR5", "reagent no.": 4, "log2 vehicle/camptothecin viability": -0.668, "Call": "inactive"}
{"target gene": "MALT1", "reagent no.": 1, "log2 vehicle/camptothecin viability": 0.391, "Call": "inactive"}
{"target gene": "MALT1", "reagent no.": 2, "log2 vehicle/camptothecin viability": -0.437, "Call": "inactive"}
{"target gene": "MALT1", "reagent no.": 3, "log2 vehicle/camptothecin viability": 0.0129, "Call": "inactive"}
{"target gene": "MALT1", "reagent no.": 4, "log2 vehicle/camptothecin viability": -0.167, "Call": "inactive"}
{"target gene": "HPGD", "reagent no.": 1, "log2 vehicle/camptothecin viability": 0.251, "Call": "inactive"}
{"target gene": "HPGD", "reagent no.": 2, "log2 vehicle/camptothecin viability": -0.496, "Call": "inactive"}
{"target gene": "HPGD", "reagent no.": 3, "log2 vehicle/camptothecin viability": -0.313, "Call": "inactive"}
{"target gene": "HPGD", "reagent no.": 4, "log2 vehicle/camptothecin viability": 2.18, "Call": "inactive"}
{"target gene": "TUBB", "reagent no.": 1, "log2 vehicle/camptothecin viability": 0.0644, "Call": "inactive"}
{"target gene": "TUBB", "reagent no.": 2, "log2 vehicle/camptothecin viability": 0.54, "Call": "inactive"}
{"target gene": "TUBB", "reagent no.": 3, "log2 vehicle/camptothecin viability": -0.665, "Call": "inactive"}
{"target gene": "TRMT61B", "reagent no.": 1, "log2 vehicle/camptothecin viability": -0.134, "Call": "inactive"}
{"target gene": "TRMT61B", "reagent no.": 2, "log2 vehicle/camptothecin viability": -0.086, "Call": "inactive"}
{"target gene": "TRMT61B", "reagent no.": 3, "log2 vehicle/camptothecin viability": 0.00651, "Call": "inactive"}
{"target gene": "TRMT61B", "reagent no.": 4, "log2 vehicle/camptothecin viability": -0.194, "Call": "inactive"}
{"target gene": "SERPINA4", "reagent no.": 1, "log2 vehicle/camptothecin viability": -0.019, "Call": "inactive"}
{"target gene": "SERPINA4", "reagent no.": 2, "log2 vehicle/camptothecin viability": -0.227, "Call": "inactive"}
{"target gene": "SERPINA4", "reagent no.": 3, "log2 vehicle/camptothecin viability": -0.61, "Call": "inactive"}
{"target gene": "SERPINA4", "reagent no.": 4, "log2 vehicle/camptothecin viability": -0.117, "Call": "inactive"}
